Test results published in the supplement of paper PMC7661543.
The effect of the compound repeats well; differences between the knockouts mostly do not.

Tested on: BT-20
Test: relative cell number vs DMSO control (72 h) (% of DMSO); higher = less growth inhibition (more cells)
Procedure: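 QMAP-Seq: a pool of 5 breast cancer cell lines (ZR-75-1, SKBR3, HCC-38, MDA-MB-231, BT-20), each carrying 12 doxycycline-inducible Cas9 sgRNA perturbations (11 knockouts plus non-targeting sgNT), was treated with compounds for 72 h at four 10-fold doses (10 nM-10 uM or 1 nM-1 uM range). Barcodes were amplified and sequenced, and cell number was interpolated from 293T spike-in standard curves. The result is expressed as % of the median of DMSO wells. Two biological replicates.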

CO[C@H]1C[C@@H]2CC[C@@H](C)[C@@](O)(O2)C(=O)C(=O)N2CCCC[C@H]2C(=O)O[C@H]([C@H](C)C[C@@H]2CC[C@@H](OCCO)[C@H](OC)C2)CC(=O)[C@H](C)/C=C(\C)[C@@H](O)[C@@H](OC)C(=O)[C@H](C)C[C@H](C)/C=C/C=C/C=C/1C [Everolimus]
Conditions | relative cell number
sgRNA knockout: sgATF3, 1 nM | 59.3
sgRNA knockout: sgATF3, 10 nM | 50.1
sgRNA knockout: sgATF3, 100 nM | 56.8
sgRNA knockout: sgATF3, 1000 nM | 72
sgRNA knockout: sgATF4, 1 nM | 54.2
sgRNA knockout: sgATF4, 10 nM | 60.8
sgRNA knockout: sgATF4, 100 nM | 60.3
sgRNA knockout: sgATF4, 1000 nM | 64.8
sgRNA knockout: sgATF6, 1 nM | 57.3
sgRNA knockout: sgATF6, 10 nM | 49.5
sgRNA knockout: sgATF6, 100 nM | 59.6
sgRNA knockout: sgATF6, 1000 nM | 75.4
sgRNA knockout: sgATG7, 1 nM | 57.3
sgRNA knockout: sgATG7, 10 nM | 56.5
sgRNA knockout: sgATG7, 100 nM | 57.7
sgRNA knockout: sgATG7, 1000 nM | 64.7
sgRNA knockout: sgERN1, 1 nM | 49.2
sgRNA knockout: sgERN1, 10 nM | 52.4
sgRNA knockout: sgERN1, 100 nM | 56.8
sgRNA knockout: sgERN1, 1000 nM | 63.1
sgRNA knockout: sgHSF1, 1 nM | 49.4
sgRNA knockout: sgHSF1, 10 nM | 45.7
sgRNA knockout: sgHSF1, 100 nM | 56.2
sgRNA knockout: sgHSF1, 1000 nM | 59.6
sgRNA knockout: sgHSF2, 1 nM | 66.8
sgRNA knockout: sgHSF2, 10 nM | 48.3
sgRNA knockout: sgHSF2, 100 nM | 51.1
sgRNA knockout: sgHSF2, 1000 nM | 66.2
sgRNA knockout: sgKEAP1, 1 nM | 61.2
sgRNA knockout: sgKEAP1, 10 nM | 58.4
sgRNA knockout: sgKEAP1, 100 nM | 64.5
sgRNA knockout: sgKEAP1, 1000 nM | 66.6
sgRNA knockout: sgNFE2L2, 1 nM | 58.2
sgRNA knockout: sgNFE2L2, 10 nM | 50.6
sgRNA knockout: sgNFE2L2, 100 nM | 54.8
sgRNA knockout: sgNFE2L2, 1000 nM | 64.1
sgRNA knockout: sgSLC35F2, 1 nM | 58.3
sgRNA knockout: sgSLC35F2, 10 nM | 54.6
sgRNA knockout: sgSLC35F2, 100 nM | 59.03
sgRNA knockout: sgSLC35F2, 1000 nM | 64
sgRNA knockout: sgXBP1, 1 nM | 57
sgRNA knockout: sgXBP1, 10 nM | 54.1
sgRNA knockout: sgXBP1, 100 nM | 59.6
sgRNA knockout: sgXBP1, 1000 nM | 62.9

CC1(C)CCC(c2ccc(Cl)cc2)=C(CN2CCN(c3ccc(C(=O)NS(=O)(=O)c4ccc(N[C@H](CCN5CCOCC5)CSc5ccccc5)c(S(=O)(=O)C(F)(F)F)c4)cc3)CC2)C1 [Navitoclax]
Conditions | relative cell number
sgRNA knockout: sgATF3, 10 nM | 109
sgRNA knockout: sgATF3, 100 nM | 104
sgRNA knockout: sgATF3, 1000 nM | 91.6
sgRNA knockout: sgATF3, 10000 nM | 74.8
sgRNA knockout: sgATF4, 10 nM | 103
sgRNA knockout: sgATF4, 100 nM | 103
sgRNA knockout: sgATF4, 1000 nM | 95.4
sgRNA knockout: sgATF4, 10000 nM | 61.8
sgRNA knockout: sgATF6, 10 nM | 105
sgRNA knockout: sgATF6, 100 nM | 91.5
sgRNA knockout: sgATF6, 1000 nM | 82.8
sgRNA knockout: sgATF6, 10000 nM | 80
sgRNA knockout: sgATG7, 10 nM | 109
sgRNA knockout: sgATG7, 100 nM | 104
sgRNA knockout: sgATG7, 1000 nM | 95.8
sgRNA knockout: sgATG7, 10000 nM | 72.8
sgRNA knockout: sgERN1, 10 nM | 94.7
sgRNA knockout: sgERN1, 100 nM | 93.2
sgRNA knockout: sgERN1, 1000 nM | 98.5
sgRNA knockout: sgERN1, 10000 nM | 73.386
sgRNA knockout: sgHSF1, 10 nM | 103.9
sgRNA knockout: sgHSF1, 100 nM | 100
sgRNA knockout: sgHSF1, 1000 nM | 92.2
sgRNA knockout: sgHSF1, 10000 nM | 74.5
sgRNA knockout: sgHSF2, 10 nM | 104
sgRNA knockout: sgHSF2, 100 nM | 90.7
sgRNA knockout: sgHSF2, 1000 nM | 95.7
sgRNA knockout: sgHSF2, 10000 nM | 75.3
sgRNA knockout: sgKEAP1, 10 nM | 89.7
sgRNA knockout: sgKEAP1, 100 nM | 104
sgRNA knockout: sgKEAP1, 1000 nM | 88.13
sgRNA knockout: sgKEAP1, 10000 nM | 79.8
sgRNA knockout: sgNFE2L2, 10 nM | 98.5
sgRNA knockout: sgNFE2L2, 100 nM | 104
sgRNA knockout: sgNFE2L2, 1000 nM | 85.8
sgRNA knockout: sgNFE2L2, 10000 nM | 82.9
sgRNA knockout: sgSLC35F2, 10 nM | 97
sgRNA knockout: sgSLC35F2, 100 nM | 96.1
sgRNA knockout: sgSLC35F2, 1000 nM | 77.1
sgRNA knockout: sgSLC35F2, 10000 nM | 69.7
sgRNA knockout: sgXBP1, 10 nM | 100
sgRNA knockout: sgXBP1, 100 nM | 108
sgRNA knockout: sgXBP1, 1000 nM | 94
sgRNA knockout: sgXBP1, 10000 nM | 82.3

C=C(c1ccc(C(=O)O)cc1)c1cc2c(cc1C)C(C)(C)CCC2(C)C [Bexarotene]
Conditions | relative cell number
sgRNA knockout: sgATF3, 10 nM | 91.2
sgRNA knockout: sgATF3, 100 nM | 102
sgRNA knockout: sgATF3, 1000 nM | 106.8
sgRNA knockout: sgATF3, 10000 nM | 101.7
sgRNA knockout: sgATF4, 10 nM | 119
sgRNA knockout: sgATF4, 100 nM | 106
sgRNA knockout: sgATF4, 1000 nM | 114
sgRNA knockout: sgATF4, 10000 nM | 118
sgRNA knockout: sgATF6, 10 nM | 85.7
sgRNA knockout: sgATF6, 100 nM | 127.1
sgRNA knockout: sgATF6, 1000 nM | 114
sgRNA knockout: sgATF6, 10000 nM | 124
sgRNA knockout: sgATG7, 10 nM | 95.1
sgRNA knockout: sgATG7, 100 nM | 118
sgRNA knockout: sgATG7, 1000 nM | 118
sgRNA knockout: sgATG7, 10000 nM | 110
sgRNA knockout: sgERN1, 10 nM | 102
sgRNA knockout: sgERN1, 100 nM | 107
sgRNA knockout: sgERN1, 1000 nM | 120
sgRNA knockout: sgERN1, 10000 nM | 137
sgRNA knockout: sgHSF1, 10 nM | 92.4
sgRNA knockout: sgHSF1, 100 nM | 98.2
sgRNA knockout: sgHSF1, 1000 nM | 120
sgRNA knockout: sgHSF1, 10000 nM | 125
sgRNA knockout: sgHSF2, 10 nM | 98.2
sgRNA knockout: sgHSF2, 100 nM | 101
sgRNA knockout: sgHSF2, 1000 nM | 110
sgRNA knockout: sgHSF2, 10000 nM | 126
sgRNA knockout: sgKEAP1, 10 nM | 103
sgRNA knockout: sgKEAP1, 100 nM | 100.6
sgRNA knockout: sgKEAP1, 1000 nM | 105
sgRNA knockout: sgKEAP1, 10000 nM | 122
sgRNA knockout: sgNFE2L2, 10 nM | 108
sgRNA knockout: sgNFE2L2, 100 nM | 105
sgRNA knockout: sgNFE2L2, 1000 nM | 93.8
sgRNA knockout: sgNFE2L2, 10000 nM | 98.483
sgRNA knockout: sgSLC35F2, 10 nM | 109
sgRNA knockout: sgSLC35F2, 100 nM | 120
sgRNA knockout: sgSLC35F2, 1000 nM | 106
sgRNA knockout: sgSLC35F2, 10000 nM | 130
sgRNA knockout: sgXBP1, 10 nM | 101
sgRNA knockout: sgXBP1, 100 nM | 97.5
sgRNA knockout: sgXBP1, 1000 nM | 103
sgRNA knockout: sgXBP1, 10000 nM | 121
